The other results are listed elsewhere or left out. Values are raw readings; no control value is given beside them.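 Primary screen: polymyxin B was added at a level permeabilizing Salmonella outer membranes while sparing inner membranes. DMSO wells, both with and without polymyxin B, established maximum growth. Plate-to-plate variation meant each plate was ranked on its own, and the lowest-OD600 compounds were selected as hits.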
Test system: Salmonella enterica serovar Typhimurium SL1344
Assay: bacterial growth OD600 after 18 h with compound and polymyxin B; higher = more bacterial growth (less inhibition)
Details: 50 µM, Mueller-Hinton broth

SMILES | bacterial growth OD600 (polymyxin B 1 µg/mL) | bacterial growth OD600 (polymyxin B 0.75 µg/mL)
CCN(CC)c1ncccc1CNC(=O)Nc1ccc2c(c1)OCO2 | 0.845 | 
O=C(NCCc1cccnc1)c1coc(COc2ccc(F)cc2Cl)n1 | 0.919 | 
COc1ccc(OC)c(Cc2nnc(CCC(=O)NCc3cc(F)ccc3C)o2)c1 | 0.862 | 
C1CCC(Nc2nc3nonc3nc2N2CCCC(CN3CCOCC3)C2)C1 (centres undefined) | 0.834 | 
COCCN1C(=O)NC(Cc2ccccc2Cl)(C2CCN(C(=O)/C=C/C(C)C)CC2)C1=O (centres undefined) |  | 0.764
O=C(NCC1CC(=O)N(C2CC2)C1)c1cc(Cn2ccc3ccccc32)[nH]n1 (centres undefined) |  | 0.781
C[C@@H]1CN(C2(C(=O)NCC(C)(C)CO)Cc3ccccc3C2)C[C@H](C)O1 |  | 0.752
CCN(CC)C(=O)C1CCCN(Cc2ccc3c(c2)CN(Cc2ccccc2)CCO3)C1 (centres undefined) |  | 0.752
CCC(O)CNC(=O)C1CCN(C2CCN(Cc3ccccc3C)CC2)CC1 (centres undefined) | 1.09 | 
Cc1ccc2c(c1)CN(CC(=O)NC(C)C13CC4CC(CC(O)(C4)C1)C3)CC(c1ccsc1)O2 (centres undefined) |  | 0.659
CN(CC1COCCO1)C(=O)C1(N2CCCCC2)Cc2ccccc2C1 (centres undefined) |  | 0.688
COc1cccc(C(=O)C2CCCN(C3CCN(c4ccc5c(c4)OCO5)CC3)C2)c1 (centres undefined) | 1.27 | 
CC(NC(=O)CCc1nnc(Cc2cccc(C(F)(F)F)c2)o1)C1CC1 (centres undefined) | 0.816 | 
CCCCNC(=O)c1cc(CN2CCOCC2)on1 | 1.26 | 
Cc1cccc(C(=O)N2CCC(CCC(=O)NC3CCN(Cc4ccccc4)C3)CC2)n1 (centres undefined) | 0.965 | 
COCCn1cc(C(=O)NCCc2cccc(Cl)c2)c(=O)c(C(=O)N(C)CC(C)C)c1 |  | 0.749
C=C(C)CNC(=O)C1CCCN(C2CCN(Cc3ccccc3)CC2)C1 (centres undefined) |  | 0.844
COc1ccc(C(=O)N(C)CCCC2CCCC2)cc1OC1CCN(C(C)=O)CC1 | 0.884 | 
O=C(c1ccc2nc(Cc3ccccc3F)oc2c1)N1CCCC1c1ccccn1 (centres undefined) | 0.87 | 

Full records as entered above:
CCN(CC)C(=O)C1CCCN(Cc2ccc3c(c2)CN(Cc2ccccc2)CCO3)C1 (centres undefined) is listed as bacterial growth OD600 (polymyxin B 0.75 µg/mL): 0.752
O=C(NCC1CC(=O)N(C2CC2)C1)c1cc(Cn2ccc3ccccc32)[nH]n1 (centres undefined) is listed as bacterial growth OD600 (polymyxin B 0.75 µg/mL): 0.781
